Results reported in the supplement of paper PMC10849652.
Some of the results follow.

The chains behind the UniProt entries cited, without tags or fusion partners. Where a name states a change or a piece, a line headed by the entry shows the natural chain unless it says otherwise.
UniProt Q53T59: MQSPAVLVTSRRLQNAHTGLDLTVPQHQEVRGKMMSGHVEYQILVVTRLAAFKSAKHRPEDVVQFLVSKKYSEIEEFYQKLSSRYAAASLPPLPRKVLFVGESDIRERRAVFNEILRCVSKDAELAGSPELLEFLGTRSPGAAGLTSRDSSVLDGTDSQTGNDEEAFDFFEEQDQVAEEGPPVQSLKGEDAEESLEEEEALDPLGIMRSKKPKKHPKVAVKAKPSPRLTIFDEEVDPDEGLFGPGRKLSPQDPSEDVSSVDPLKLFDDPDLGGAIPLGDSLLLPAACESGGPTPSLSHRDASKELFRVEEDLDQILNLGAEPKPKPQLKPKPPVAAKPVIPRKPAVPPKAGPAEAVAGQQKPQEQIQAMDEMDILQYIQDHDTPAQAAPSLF
UniProt Q14103: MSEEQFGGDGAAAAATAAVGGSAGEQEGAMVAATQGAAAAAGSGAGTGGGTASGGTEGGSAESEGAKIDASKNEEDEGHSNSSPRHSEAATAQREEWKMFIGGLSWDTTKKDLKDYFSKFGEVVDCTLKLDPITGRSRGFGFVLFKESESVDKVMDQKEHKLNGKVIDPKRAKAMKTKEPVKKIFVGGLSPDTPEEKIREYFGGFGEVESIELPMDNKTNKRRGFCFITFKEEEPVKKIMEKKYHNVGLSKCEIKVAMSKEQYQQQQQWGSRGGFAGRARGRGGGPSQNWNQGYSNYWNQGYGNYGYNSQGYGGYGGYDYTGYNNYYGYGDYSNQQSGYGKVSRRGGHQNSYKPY
UniProt Q58FG1, whole entry, looked up: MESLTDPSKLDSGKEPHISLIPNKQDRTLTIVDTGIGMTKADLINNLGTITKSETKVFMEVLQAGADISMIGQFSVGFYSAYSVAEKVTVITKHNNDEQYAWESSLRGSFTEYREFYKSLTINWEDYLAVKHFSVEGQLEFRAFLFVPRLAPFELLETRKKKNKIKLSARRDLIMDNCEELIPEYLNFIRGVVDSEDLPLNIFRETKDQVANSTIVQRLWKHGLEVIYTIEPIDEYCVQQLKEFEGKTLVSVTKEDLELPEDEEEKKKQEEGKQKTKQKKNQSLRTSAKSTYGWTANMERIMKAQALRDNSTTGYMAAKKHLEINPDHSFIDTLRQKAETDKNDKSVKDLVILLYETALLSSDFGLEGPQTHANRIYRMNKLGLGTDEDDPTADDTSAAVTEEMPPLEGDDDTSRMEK
UniProt O95714: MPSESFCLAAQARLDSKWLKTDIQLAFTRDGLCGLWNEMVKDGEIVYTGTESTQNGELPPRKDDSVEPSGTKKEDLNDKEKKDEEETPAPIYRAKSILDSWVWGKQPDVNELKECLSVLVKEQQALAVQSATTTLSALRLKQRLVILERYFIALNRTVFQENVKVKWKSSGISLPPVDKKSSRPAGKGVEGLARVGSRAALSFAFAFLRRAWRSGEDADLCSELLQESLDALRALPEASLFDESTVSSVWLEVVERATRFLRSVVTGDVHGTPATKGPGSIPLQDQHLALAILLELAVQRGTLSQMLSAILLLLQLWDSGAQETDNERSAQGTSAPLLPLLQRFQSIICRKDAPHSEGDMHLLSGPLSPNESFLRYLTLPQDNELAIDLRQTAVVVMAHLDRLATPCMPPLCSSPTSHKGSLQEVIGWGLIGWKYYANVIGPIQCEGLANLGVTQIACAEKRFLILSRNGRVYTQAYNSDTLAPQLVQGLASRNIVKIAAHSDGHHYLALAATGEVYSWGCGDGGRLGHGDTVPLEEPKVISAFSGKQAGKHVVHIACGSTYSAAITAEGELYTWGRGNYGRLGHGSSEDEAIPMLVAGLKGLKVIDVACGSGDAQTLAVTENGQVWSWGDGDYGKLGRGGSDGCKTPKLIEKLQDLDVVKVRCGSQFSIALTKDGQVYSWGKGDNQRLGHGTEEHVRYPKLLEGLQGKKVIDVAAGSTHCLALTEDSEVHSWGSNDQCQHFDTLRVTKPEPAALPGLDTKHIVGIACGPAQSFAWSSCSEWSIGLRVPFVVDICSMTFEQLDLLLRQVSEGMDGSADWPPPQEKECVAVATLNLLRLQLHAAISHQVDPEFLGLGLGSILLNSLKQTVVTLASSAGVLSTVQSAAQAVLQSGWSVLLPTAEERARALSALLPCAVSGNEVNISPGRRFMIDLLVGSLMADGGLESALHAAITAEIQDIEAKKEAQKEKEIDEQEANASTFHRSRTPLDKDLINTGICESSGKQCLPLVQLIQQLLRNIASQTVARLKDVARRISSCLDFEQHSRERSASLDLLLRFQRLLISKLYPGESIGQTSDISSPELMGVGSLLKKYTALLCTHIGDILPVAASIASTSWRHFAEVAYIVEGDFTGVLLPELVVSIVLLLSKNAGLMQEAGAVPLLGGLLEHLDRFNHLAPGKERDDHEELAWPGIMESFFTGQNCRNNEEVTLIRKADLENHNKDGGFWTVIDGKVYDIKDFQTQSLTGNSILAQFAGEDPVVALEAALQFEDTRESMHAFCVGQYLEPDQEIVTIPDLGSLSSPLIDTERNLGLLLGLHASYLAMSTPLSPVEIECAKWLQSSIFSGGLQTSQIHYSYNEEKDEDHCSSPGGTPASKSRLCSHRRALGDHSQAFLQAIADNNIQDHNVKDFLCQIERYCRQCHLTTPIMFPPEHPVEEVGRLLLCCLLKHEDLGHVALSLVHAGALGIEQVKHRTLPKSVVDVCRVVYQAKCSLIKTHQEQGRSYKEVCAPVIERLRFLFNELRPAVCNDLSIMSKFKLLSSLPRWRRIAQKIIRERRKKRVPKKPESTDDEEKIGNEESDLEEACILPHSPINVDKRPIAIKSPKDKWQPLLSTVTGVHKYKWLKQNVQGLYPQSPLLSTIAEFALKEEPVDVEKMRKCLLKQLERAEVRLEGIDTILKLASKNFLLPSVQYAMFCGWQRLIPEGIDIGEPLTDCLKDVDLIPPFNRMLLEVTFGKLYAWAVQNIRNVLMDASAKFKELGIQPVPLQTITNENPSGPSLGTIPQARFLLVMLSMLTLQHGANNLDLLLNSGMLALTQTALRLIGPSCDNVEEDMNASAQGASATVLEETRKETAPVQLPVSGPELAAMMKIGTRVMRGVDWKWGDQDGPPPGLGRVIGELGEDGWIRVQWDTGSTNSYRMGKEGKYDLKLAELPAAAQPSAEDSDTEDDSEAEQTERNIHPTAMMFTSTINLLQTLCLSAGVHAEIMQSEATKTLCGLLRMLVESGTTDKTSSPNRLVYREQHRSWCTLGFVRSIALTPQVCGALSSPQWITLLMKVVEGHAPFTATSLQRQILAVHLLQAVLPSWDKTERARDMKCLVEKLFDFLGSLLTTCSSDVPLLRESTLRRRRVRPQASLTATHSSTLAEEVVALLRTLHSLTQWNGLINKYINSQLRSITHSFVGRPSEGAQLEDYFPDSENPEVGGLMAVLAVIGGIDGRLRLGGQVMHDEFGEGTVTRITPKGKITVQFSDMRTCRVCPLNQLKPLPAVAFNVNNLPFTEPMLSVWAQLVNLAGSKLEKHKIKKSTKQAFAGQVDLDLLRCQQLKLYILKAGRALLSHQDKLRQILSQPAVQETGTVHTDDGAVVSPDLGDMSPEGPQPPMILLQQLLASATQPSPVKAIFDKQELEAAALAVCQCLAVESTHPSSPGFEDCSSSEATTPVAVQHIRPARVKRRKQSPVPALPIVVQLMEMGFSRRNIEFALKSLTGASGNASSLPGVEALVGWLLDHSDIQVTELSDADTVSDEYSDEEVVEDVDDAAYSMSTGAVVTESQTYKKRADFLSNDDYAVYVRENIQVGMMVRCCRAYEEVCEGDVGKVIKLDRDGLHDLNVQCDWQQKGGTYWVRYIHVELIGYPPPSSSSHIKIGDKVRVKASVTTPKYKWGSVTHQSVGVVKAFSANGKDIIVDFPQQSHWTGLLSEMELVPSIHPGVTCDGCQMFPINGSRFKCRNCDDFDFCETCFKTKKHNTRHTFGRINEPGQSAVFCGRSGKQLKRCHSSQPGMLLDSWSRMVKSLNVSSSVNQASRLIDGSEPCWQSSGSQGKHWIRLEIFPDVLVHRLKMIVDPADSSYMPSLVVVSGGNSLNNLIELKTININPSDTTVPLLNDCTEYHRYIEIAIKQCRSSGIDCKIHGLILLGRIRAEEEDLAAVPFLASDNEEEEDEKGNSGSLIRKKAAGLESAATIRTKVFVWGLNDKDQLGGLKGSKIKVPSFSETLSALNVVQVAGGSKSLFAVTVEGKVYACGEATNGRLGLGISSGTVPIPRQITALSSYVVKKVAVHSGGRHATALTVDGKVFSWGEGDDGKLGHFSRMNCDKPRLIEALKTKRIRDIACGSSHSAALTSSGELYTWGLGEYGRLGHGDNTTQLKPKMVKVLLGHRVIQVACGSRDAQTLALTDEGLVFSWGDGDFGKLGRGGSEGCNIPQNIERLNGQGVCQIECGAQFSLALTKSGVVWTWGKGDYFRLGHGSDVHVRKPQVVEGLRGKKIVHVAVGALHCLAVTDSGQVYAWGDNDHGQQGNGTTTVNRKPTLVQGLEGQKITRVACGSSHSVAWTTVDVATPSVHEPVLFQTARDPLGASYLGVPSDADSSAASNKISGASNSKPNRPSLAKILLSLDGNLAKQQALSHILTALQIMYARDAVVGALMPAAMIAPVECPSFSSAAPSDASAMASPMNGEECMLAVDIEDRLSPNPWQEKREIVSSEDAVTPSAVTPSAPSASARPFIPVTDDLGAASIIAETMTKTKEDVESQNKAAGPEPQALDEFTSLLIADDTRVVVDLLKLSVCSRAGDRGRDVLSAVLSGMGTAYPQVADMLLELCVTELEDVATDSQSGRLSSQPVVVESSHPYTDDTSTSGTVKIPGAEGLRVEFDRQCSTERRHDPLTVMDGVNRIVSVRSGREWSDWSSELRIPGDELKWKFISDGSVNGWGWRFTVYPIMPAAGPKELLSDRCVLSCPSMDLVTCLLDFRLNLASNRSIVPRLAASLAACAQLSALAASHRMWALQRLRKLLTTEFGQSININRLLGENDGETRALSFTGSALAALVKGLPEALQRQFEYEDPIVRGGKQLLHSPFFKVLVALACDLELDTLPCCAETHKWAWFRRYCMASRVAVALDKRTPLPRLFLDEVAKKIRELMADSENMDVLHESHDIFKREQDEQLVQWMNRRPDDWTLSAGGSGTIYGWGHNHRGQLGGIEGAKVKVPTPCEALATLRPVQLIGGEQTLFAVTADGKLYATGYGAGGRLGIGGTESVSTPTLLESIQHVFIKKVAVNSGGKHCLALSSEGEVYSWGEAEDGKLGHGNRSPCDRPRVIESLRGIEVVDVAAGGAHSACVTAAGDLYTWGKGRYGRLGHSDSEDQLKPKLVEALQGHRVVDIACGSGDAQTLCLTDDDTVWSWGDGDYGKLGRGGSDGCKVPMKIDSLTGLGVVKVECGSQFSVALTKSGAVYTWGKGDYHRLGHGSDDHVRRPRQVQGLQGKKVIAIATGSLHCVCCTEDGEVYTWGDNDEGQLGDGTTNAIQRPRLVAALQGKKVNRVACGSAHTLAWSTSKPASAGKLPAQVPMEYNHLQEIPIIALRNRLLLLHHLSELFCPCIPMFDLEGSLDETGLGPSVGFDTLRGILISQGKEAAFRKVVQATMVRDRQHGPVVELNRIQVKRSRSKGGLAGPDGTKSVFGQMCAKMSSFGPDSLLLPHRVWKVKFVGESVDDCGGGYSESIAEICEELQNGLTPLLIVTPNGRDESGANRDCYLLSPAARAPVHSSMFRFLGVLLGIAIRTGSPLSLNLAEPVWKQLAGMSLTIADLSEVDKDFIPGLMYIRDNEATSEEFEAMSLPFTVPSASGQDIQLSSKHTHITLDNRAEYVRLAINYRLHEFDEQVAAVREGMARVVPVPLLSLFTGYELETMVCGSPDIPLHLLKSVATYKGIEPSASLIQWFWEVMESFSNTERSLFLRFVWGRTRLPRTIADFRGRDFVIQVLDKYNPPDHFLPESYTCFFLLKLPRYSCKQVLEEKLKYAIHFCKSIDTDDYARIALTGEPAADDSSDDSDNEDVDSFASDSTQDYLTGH
UniProt Q5SSJ5: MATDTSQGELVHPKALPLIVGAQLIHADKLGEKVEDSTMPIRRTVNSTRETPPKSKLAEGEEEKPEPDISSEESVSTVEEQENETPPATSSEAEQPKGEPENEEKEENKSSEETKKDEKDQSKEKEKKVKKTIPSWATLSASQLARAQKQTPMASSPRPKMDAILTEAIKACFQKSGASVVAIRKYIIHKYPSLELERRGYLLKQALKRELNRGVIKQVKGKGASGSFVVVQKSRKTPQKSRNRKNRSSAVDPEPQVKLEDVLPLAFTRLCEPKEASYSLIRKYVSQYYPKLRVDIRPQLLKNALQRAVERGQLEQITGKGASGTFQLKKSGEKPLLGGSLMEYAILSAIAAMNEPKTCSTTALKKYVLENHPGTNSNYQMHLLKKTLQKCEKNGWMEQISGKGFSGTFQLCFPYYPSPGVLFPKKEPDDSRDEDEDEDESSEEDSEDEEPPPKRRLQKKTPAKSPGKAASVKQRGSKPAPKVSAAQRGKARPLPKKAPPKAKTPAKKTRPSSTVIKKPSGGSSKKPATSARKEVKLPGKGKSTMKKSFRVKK

Key:
Assay in all cases: log2 fold change, soluble protein after heating vs DMSO (PISA); higher = thermal stabilisation; K562 lysate, 10 uM; active = over 0.2 and 3.5 SD of the protein, either way, in both replicates (recomputed)
erlotinib = compound: C#Cc1cccc(Nc2ncnc3cc(OCCOC)c(OCCOC)cc23)c1 [erlotinib]
Method in brief: (§1)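 Log-two fold change in thermal stability relative to solvent controls is reported from duplicates. For each sample, crude K562 extract from dounce-homogenised pellets in PBS pH 7.4 with 1 mM MgCl2, at 1 mg/mL protein, was treated with 10 μM compound for 30 min. Aliquots heated for 3 min across 48°C-58°C were pooled, brought to 0.5% NP-40 at 4°C and cleared at 21,000xg for 90 min. The supernatant was quantified by TMTpro 16plex LC-MS/MS with channel sums equalised.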

[1] = compound: C/C(=N\NC(=O)C1=CC(=CC=C1)S(=O)(=O)N2CCOCC2)/C3=C(C=CC(=C3)Cl)O
Method in brief: as §1

[2] = compound: C1=CC(=CC=C1C2=NC3=C(N2)C=C(C=C3)C(=O)N)OC4=CC=C(C=C4)Cl
Method in brief: as §1

[3] = compound: C1=CC2=C(C=CC(=C2)/C=C\3/C(=O)NC(=NCC4=CC=CS4)S3)N=C1
Method in brief: as §1

[4] = compound: C1=CC2=NC=CN=C2C=C1/C=C/3\C(=O)NC(=O)S3
Method in brief: as §1

[5] = compound: C1=CC=C(C=C1)C2=NC(=C(N2)C3=CC=NC=C3)C4=CC(=C(C=C4)Cl)O
Method in brief: as §1

[6] = compound: C1=CC=C2C(=C1)C3=NNC4=CC=CC(=C43)C2=O
Method in brief: as §1

[7] = compound: C1CCN(C1)C(=O)NC2=CC=CC(=C2)NC3=NC=C(C(=N3)NCCC4=CN=CN4)Br
Method in brief: as §1

[8] = compound: C1CN(CCC1(CC2=CC=C(C=C2)Cl)N)C3=NC=NC4=C3C=CN4
Method in brief: as §1

IRAK-1-4 Inhibitor I = compound: C1COCCN1CCN2C3=CC=CC=C3N=C2NC(=O)C4=CC(=CC=C4)[N+](=O)[O-] [IRAK-1-4 Inhibitor I]
Method in brief: as §1

ibrutinib = compound: C=CC(=O)N1CCC[C@@H](n2nc(-c3ccc(Oc4ccccc4)cc3)c3c(N)ncnc32)C1 [ibrutinib]
Method in brief: as §1

[9] = compound: CC(=O)c1cnc2ccc(-c3cc(Cl)c(O)c(Cl)c3)nc2c1N[C@H]1CC[C@H](CN(C)C)CC1
Method in brief: as §1

ralimetinib = compound: CC(C)(C)Cn1c(N)nc2ccc(-c3[nH]c(C(C)(C)C)nc3-c3ccc(F)cc3)nc21 [ralimetinib]
Method in brief: as §1

[10] = compound: CC(C)(O)CC(=O)NCCn1ccc2ncnc(Nc3ccc(Oc4cccc(C(F)(F)F)c4)c(Cl)c3)c21
Method in brief: as §1

[11] = compound: CC(C)C1=C2N=C(C=C(N2N=C1)NCC3=CC=CC=C3)NCCCCCCN
Method in brief: as §1

[12] = compound: CC1=C(C(CC(=O)N1)C2=CC=C(C=C2)C(F)(F)F)C(=O)NC3=C(C=C4C(=C3)C=NN4)F
Method in brief: as §1

[13] = compound: CC1=C(C2=C(C=C1)C(=O)C3=CC=CC=C3N2CCCN)C
Method in brief: as §1

[14] = compound: CC1=C(C=C(C=C1)NC(=O)C2=CC(=CC=C2)C(C)(C)C#N)NC3=CC4=C(C=C3)N=CN(C4=O)C
Method in brief: as §1

[15] = compound: CC1=C(C=C(C=C1)NC(=O)C2=CC(=CC=C2)N(C)C)NC(=O)C3=CC=C(C=C3)O
Method in brief: as §1

[16] = compound: CC1=CC=C(C=C1)SC2=C3C=C(SC3=CN=C2)C(=O)N
Method in brief: as §1

| Target | log2 fold change (erlotinib) | log2 fold change [1] | log2 fold change [2] | log2 fold change [3] | log2 fold change [4] | log2 fold change [5] | log2 fold change [6] | log2 fold change [7] | log2 fold change [8] | log2 fold change (IRAK-1-4 Inhibitor I) | log2 fold change (ibrutinib) | log2 fold change [9] | log2 fold change (ralimetinib) | log2 fold change [10] | log2 fold change [11] | log2 fold change [12] | log2 fold change [13] | log2 fold change [14] | log2 fold change [15] | log2 fold change [16] |
| --- | --- | --- | --- | --- | --- | --- | --- | --- | --- | --- | --- | --- | --- | --- | --- | --- | --- | --- | --- | --- |
| HNRNPUL2 (UniProt Q1KMD3) | inactive: -0.006 | inactive: -0.002 | inactive: 0.02 | inactive: -0.004 | inactive: -0.035 | inactive: -0.006 | inactive: -0.014 | inactive: -0.001 | inactive: -0.022 | inactive: -0.003 | inactive: -0.019 | active: -0.674 | inactive: -0.018 | inactive: -0.02 | inactive: 0.021 | inactive: -0.022 | inactive: -0.03 | inactive: 0.011 | inactive: 0.032 | inactive: 0 |
| HECTD3 (UniProt Q5T447) | inactive: 0.027 | inactive: 0 | inactive: -0.005 | inactive: 0.008 | inactive: 0.022 | inactive: 0.018 | inactive: -0.008 | inactive: -0.028 | inactive: -0.026 | inactive: 0.008 | inactive: 0.054 | inactive: 0.019 | inactive: 0.037 | inactive: -0.027 | inactive: -0.022 | inactive: -0.043 | inactive: 0.022 | inactive: -0.014 | inactive: 0.002 | inactive: 0.011 |
| HMGN1 (UniProt P05114) | inactive: -0.02 | inactive: -0.026 | inactive: 0.038 | inactive: 0.075 | inactive: 0.004 | inactive: 0.024 | inactive: -0.053 | inactive: 0.014 | inactive: 0.038 | inactive: 0.051 | inactive: -0.061 | inactive: 0.008 | inactive: -0.007 | inactive: 0.008 | inactive: 0.006 | inactive: 0.025 | inactive: 0.004 | inactive: -0.032 | inactive: 0.03 | inactive: 0.009 |
| HS1BP3 (UniProt Q53T59) | inactive: -0.019 | inactive: -0.04 | inactive: 0.007 | inactive: -0.013 | inactive: -0.027 | inactive: -0.031 | inactive: 0.029 | inactive: -0.022 | inactive: 0.01 | inactive: 0.01 | inactive: -0.01 | inactive: 0.001 | inactive: 0.017 | inactive: 0 | inactive: -0.013 | inactive: 0.005 | inactive: 0.056 | inactive: 0.016 | inactive: -0.005 | inactive: -0.013 |
| HNRNPF (UniProt P52597) | inactive: -0.022 | inactive: 0.028 | inactive: 0.018 | inactive: -0.012 | inactive: -0.004 | inactive: 0 | inactive: -0.039 | inactive: -0.016 | inactive: 0.017 | inactive: 0.018 | inactive: -0.018 | inactive: 0.007 | inactive: -0.059 | inactive: -0.032 | inactive: 0.003 | inactive: 0 | inactive: 0.019 | inactive: 0.074 | inactive: 0.004 | inactive: 0.006 |
| HNRNPD isoform 3 (UniProt Q14103) | inactive: -0.056 | inactive: -0.133 | inactive: -0.1 | inactive: -0.181 | inactive: -0.036 | inactive: -0.11 | inactive: 0.021 | inactive: 0.108 | inactive: -0.043 | inactive: -0.057 | inactive: -0.081 | inactive: -0.065 | inactive: -0.046 | inactive: 0.104 | inactive: -0.026 | inactive: -0.096 | inactive: -0.052 | inactive: 0 | inactive: 0.036 | inactive: -0.007 |
| HOXB9 (UniProt P17482) | inactive: 0.028 | inactive: -0.022 | inactive: 0.098 | inactive: 0.025 | inactive: -0.2 | inactive: -0.116 | inactive: 0.025 | inactive: -0.109 | inactive: 0.033 | inactive: 0 | inactive: 0.21 | inactive: 0.038 | inactive: 0.041 | inactive: 0.138 | inactive: 0.084 | inactive: -0.011 | inactive: -0.08 | inactive: 0.274 | inactive: -0.014 | inactive: -0.004 |
| HRC (UniProt P23327) | inactive: 0.014 | inactive: -0.019 | inactive: 0.061 | inactive: 0 | inactive: -0.049 | inactive: 0.031 | inactive: -0.049 | inactive: 0.024 | inactive: 0.032 | inactive: -0.001 | inactive: 0.001 | inactive: -0.064 | inactive: 0.005 | inactive: -0.042 | inactive: -0.013 | inactive: -0.006 | inactive: -0.111 | inactive: 0.062 | inactive: -0.032 | inactive: -0.033 |
| HSP90AA4P (UniProt Q58FG1) | inactive: -0.064 | inactive: 0.994 | inactive: 0.097 | inactive: 0.018 | inactive: -0.129 | inactive: 0.023 | inactive: -0.003 | inactive: -0.032 | inactive: -0.09 | inactive: 0.081 | inactive: 0.026 | inactive: -0.123 | inactive: -0.011 | inactive: -0.055 | inactive: 0.021 | inactive: -0.071 | inactive: -0.045 | inactive: 0.073 | inactive: 0.097 | inactive: -0.051 |
| HERC2 (UniProt O95714) | inactive: 0.014 | inactive: 0.174 | inactive: 0.115 | inactive: 0.007 | inactive: 0.01 | inactive: 0.042 | inactive: -0.061 | inactive: -0.016 | inactive: -0.001 | inactive: -0.033 | inactive: 0.001 | inactive: 0.053 | inactive: 0.002 | inactive: 0.02 | inactive: 0.082 | inactive: 0.028 | inactive: -0.063 | inactive: 0.021 | inactive: 0.041 | inactive: 0.015 |
| HMBS (UniProt P08397) | inactive: 0 | inactive: -0.009 | inactive: 0.014 | inactive: 0.012 | inactive: -0.009 | inactive: 0.017 | inactive: 0.042 | inactive: 0.023 | inactive: -0.022 | inactive: 0.022 | inactive: -0.011 | inactive: 0.006 | inactive: -0.025 | inactive: -0.005 | inactive: -0.012 | inactive: -0.026 | inactive: -0.01 | inactive: -0.001 | inactive: -0.013 | inactive: -0.003 |
| HELQ (UniProt Q8TDG4) | inactive: -0.029 | inactive: -0.023 | inactive: 0.044 | inactive: 0.07 | inactive: 0.019 | inactive: 0.004 | inactive: 0.077 | inactive: 0.056 | inactive: 0.064 | inactive: -0.033 | inactive: 0.054 | inactive: 0.072 | inactive: -0.007 | inactive: -0.017 | inactive: -0.012 | inactive: 0.203 | inactive: 0.003 | inactive: -0.036 | inactive: 0.046 | inactive: -0.002 |
| HEBP2 (UniProt Q9Y5Z4) | inactive: -0.008 | inactive: 0.071 | inactive: 0.024 | inactive: -0.008 | inactive: -0.036 | inactive: -0.009 | inactive: -0.047 | inactive: 0.012 | inactive: -0.008 | inactive: -0.001 | inactive: 0.007 | inactive: -0.017 | inactive: 0.004 | inactive: -0.029 | inactive: -0.03 | inactive: -0.051 | inactive: -0.003 | inactive: 0.012 | inactive: -0.021 | inactive: -0.004 |
| HNRNPA1 (UniProt P09651) | inactive: 0.015 | inactive: -0.033 | inactive: -0.002 | inactive: -0.034 | inactive: 0.017 | inactive: 0.009 | inactive: -0.014 | inactive: 0.028 | inactive: 0.018 | inactive: -0.007 | inactive: -0.013 | inactive: -0.032 | inactive: -0.015 | inactive: -0.002 | inactive: -0.009 | inactive: -0.029 | inactive: -0.037 | inactive: 0.003 | inactive: -0.013 | inactive: 0.03 |
| HIF1AN (UniProt Q9NWT6) | inactive: -0.013 | inactive: -0.022 | inactive: 0.026 | inactive: -0.031 | inactive: -0.026 | inactive: 0.002 | inactive: 0.014 | inactive: -0.037 | inactive: 0.048 | inactive: -0.116 | inactive: 0.034 | inactive: 0.006 | inactive: 0.018 | inactive: 0.011 | inactive: 0.016 | inactive: 0.023 | inactive: 0.026 | inactive: -0.11 | inactive: -0.072 | inactive: -0.07 |
| HP1BP3 (UniProt Q5SSJ5) | inactive: -0.007 | inactive: -0.038 | inactive: -0.012 | inactive: 0.026 | inactive: -0.008 | inactive: -0.009 | inactive: -0.004 | inactive: 0.011 | inactive: 0.014 | inactive: -0.003 | inactive: 0.036 | inactive: -0.013 | inactive: 0.013 | inactive: -0.043 | inactive: -0.023 | inactive: 0.013 | inactive: -0.043 | inactive: -0.016 | inactive: -0.004 | inactive: -0.002 |

Shown bar-delimited: entries from further up.
Target | log2 fold change (erlotinib) | log2 fold change [1] | log2 fold change [2] | log2 fold change [3] | log2 fold change [4] | log2 fold change [5] | log2 fold change [6] | log2 fold change [7] | log2 fold change [8] | log2 fold change (IRAK-1-4 Inhibitor I) | log2 fold change (ibrutinib) | log2 fold change [9] | log2 fold change (ralimetinib) | log2 fold change [10] | log2 fold change [11] | log2 fold change [12] | log2 fold change [13] | log2 fold change [14] | log2 fold change [15] | log2 fold change [16]
HECTD3 (UniProt Q5T447) | inactive: 0.027 | inactive: 0 | inactive: -0.005 | inactive: 0.008 | inactive: 0.022 | inactive: 0.018 | inactive: -0.008 | inactive: -0.028 | inactive: -0.026 | inactive: 0.008 | inactive: 0.054 | inactive: 0.019 | inactive: 0.037 | inactive: -0.027 | inactive: -0.022 | inactive: -0.043 | inactive: 0.022 | inactive: -0.014 | inactive: 0.002 | inactive: 0.011
HS1BP3 (UniProt Q53T59) | inactive: -0.019 | inactive: -0.04 | inactive: 0.007 | inactive: -0.013 | inactive: -0.027 | inactive: -0.031 | inactive: 0.029 | inactive: -0.022 | inactive: 0.01 | inactive: 0.01 | inactive: -0.01 | inactive: 0.001 | inactive: 0.017 | inactive: 0 | inactive: -0.013 | inactive: 0.005 | inactive: 0.056 | inactive: 0.016 | inactive: -0.005 | inactive: -0.013
HNRNPD isoform 3 (UniProt Q14103) | inactive: -0.056 | inactive: -0.133 | inactive: -0.1 | inactive: -0.181 | inactive: -0.036 | inactive: -0.11 | inactive: 0.021 | inactive: 0.108 | inactive: -0.043 | inactive: -0.057 | inactive: -0.081 | inactive: -0.065 | inactive: -0.046 | inactive: 0.104 | inactive: -0.026 | inactive: -0.096 | inactive: -0.052 | inactive: 0 | inactive: 0.036 | inactive: -0.007
HNRNPA1 (UniProt P09651) | inactive: 0.015 | inactive: -0.033 | inactive: -0.002 | inactive: -0.034 | inactive: 0.017 | inactive: 0.009 | inactive: -0.014 | inactive: 0.028 | inactive: 0.018 | inactive: -0.007 | inactive: -0.013 | inactive: -0.032 | inactive: -0.015 | inactive: -0.002 | inactive: -0.009 | inactive: -0.029 | inactive: -0.037 | inactive: 0.003 | inactive: -0.013 | inactive: 0.03
